Experimental data: PMC12647621, “A de novo missense variant in MIDEAS results in increased deacetylase activity of the MiDAC HDAC complex causing a neurodevelopmental syndrome” (Nature Communications, 2025)
Where a chain is given by its changes, count along the chain named. No constants are given. Whether binding was seen depends on the method and setting. In cells and extracts the contact can be indirect. Some binding calls cover weakened binding; strength is not graded here.

Amino acid sequences for entries named in this document (tags omitted).
UniProt Q13547: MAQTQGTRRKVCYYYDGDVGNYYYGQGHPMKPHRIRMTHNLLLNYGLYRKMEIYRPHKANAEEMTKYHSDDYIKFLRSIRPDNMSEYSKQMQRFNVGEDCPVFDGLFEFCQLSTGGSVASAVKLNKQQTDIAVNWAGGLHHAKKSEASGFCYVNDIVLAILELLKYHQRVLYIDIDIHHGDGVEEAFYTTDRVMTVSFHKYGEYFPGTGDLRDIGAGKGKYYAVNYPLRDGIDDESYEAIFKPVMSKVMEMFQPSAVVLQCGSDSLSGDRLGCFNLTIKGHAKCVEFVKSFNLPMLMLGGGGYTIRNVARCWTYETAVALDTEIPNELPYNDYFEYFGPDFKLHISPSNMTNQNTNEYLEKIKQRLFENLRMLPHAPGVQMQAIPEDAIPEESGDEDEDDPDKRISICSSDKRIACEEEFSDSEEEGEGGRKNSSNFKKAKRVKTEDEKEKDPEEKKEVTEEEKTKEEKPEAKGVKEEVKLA

Columns and labels:
Assay in all cases: co-IP; co-purification: 10xHis-3xFLAG-MIDEAS constructs co-expressed with DNTTIP1 and HDAC1 in HEK293F, lysate bound to anti-FLAG resin, washed, released by TEV protease, Superdex-200 gel filtration; HDAC1 in the complex shown by its deacetylase activity
[1] = biological target: T1, MIDEAS 628-887 Y654S T655A (SAP) (human) (UniProt Q6PJG2)
T1 sequence: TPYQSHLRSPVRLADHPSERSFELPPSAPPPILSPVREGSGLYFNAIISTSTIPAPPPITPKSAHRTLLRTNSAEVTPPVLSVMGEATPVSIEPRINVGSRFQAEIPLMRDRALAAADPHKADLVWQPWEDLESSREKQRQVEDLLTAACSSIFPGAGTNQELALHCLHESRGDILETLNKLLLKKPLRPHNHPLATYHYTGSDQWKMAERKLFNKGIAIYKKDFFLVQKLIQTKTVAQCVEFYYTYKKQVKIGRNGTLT

[2] = biological target: T2, MIDEAS 628-887 Y654S T655D (SDP) (human) (UniProt Q6PJG2)
T2 sequence: T1 sequence with A28D

[3] = biological target: T3, MIDEAS 717-887 (WT) (human) (UniProt Q6PJG2)
T3 sequence: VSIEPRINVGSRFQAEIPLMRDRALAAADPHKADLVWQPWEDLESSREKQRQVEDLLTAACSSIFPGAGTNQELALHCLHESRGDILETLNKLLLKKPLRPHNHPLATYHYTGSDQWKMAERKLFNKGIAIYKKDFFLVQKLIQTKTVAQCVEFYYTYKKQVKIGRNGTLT

Measured: binding

HDAC1 (full-length) (from UniProt Q13547 1-482) (enzyme)
binds: all assays above
